Assay results as given in the supplement of paper PMC7024190.
The other results are listed elsewhere or left out. Repeats in this data set agree poorly, so a single value says little.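 Human embryonic kidney cells were transiently transfected with a plasmid bearing a Renilla luciferase gene under the HSV-TK promoter. This first-round screen tests roughly ten thousand compounds for ones that increase reporter output.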

What follows are compounds tested on HEK 293FT (assay: log relative Renilla luciferase luminescence (reporter expression vs reference, reference not stated) (log (base not stated)); higher = higher recombinant reporter expression). Settings: 10 µM; time after transfection 48 h.
Experimental: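 HEK 293FT cells transiently transfected with pRL-TK (Renilla luciferase) were treated with compounds at 10 uM and luminescence was read about 42 h later. Values are log relative Renilla luminescence (log base and reference not stated). Single-pass screen; 2080 natural products library.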

SMILES	log
C=C1CC23CCC1CC2C12CCCC4(C)C5OCCN5C1OC3C(OC(C)=O)C42 (centres undefined) [Spiradine F]	0.0607
CC(C)(O)[C@@H](COc1c2occc2cc2ccc(=O)oc12)OC(C)(C)[C@H](O)COc1c2occc2cc2ccc(=O)oc12 [Rivulobirin E]	0.196
O=C1c2cc(O)cc(O)c2C(=O)c2c(O)cc(CO)cc21 [Citreorosein]	0.112
C=C1CCC(C(C)C)=C[C@H]2[C@@H]1CC[C@@]2(C)O [Alismol]	-0.89
COc1cc([C@@H]2Oc3c(OC)cc(/C=C/C=O)cc3[C@H]2CO)ccc1O [Balanophonin]	-0.0669
CC(=O)OC1CCC2(C)C(CCC3(C)C2CC=C2C4C(C)C(C)CCC4(C(=O)O)CCC23C)C1(C)C (centres undefined) [Acetylursolic acid]	0.0581
OCCCc1ccc(O)cc1 [3-(4-Hydroxyphenyl)-1-propanol]	-0.023
CC(C)(O)[C@@H]1Cc2c(cc3oc(CO[C@@H]4O[C@H](CO)[C@@H](O)[C@H](O)[C@H]4O)cc(=O)c3c2O)O1 [prim-O-Glucosylangelicain]	0.0208
CC(C)(O[C@@H]1O[C@H](CO)[C@@H](O)[C@H](O)[C@H]1O)[C@H]1Oc2cc3oc(=O)ccc3cc2[C@H]1O [Smyrindioloside]	0.316
COc1cnc(C2CCCc3c4[nH]c5c(O)cccc5c4c(OC)c[n+]32)c2[nH]c3c(O)cccc3c12 (centres undefined) [Picrasidine T]	0.085
O=c1c(O)c(-c2c(O)cccc2O)oc2cc(O)cc(O)c12 [Viscidulin I]	-0.129
O=C(O)c1ccc(O)c(O)c1 [3,4-Dihydroxybenzoic acid]	0.119
COc1ccccc1[C@@H]1CC(=O)c2c(OC)cc(O)c(OC)c2O1 [7-Hydroxy-2',5,8-trimethoxyflavanone]	0.317
COc1cc([C@H]2Oc3c(OC)cc4ccc(=O)oc4c3O[C@@H]2CO)cc(OC)c1O [Cleomiscosin C]	0.141
C[C@H]1[C@H](C)CC[C@]2(C(=O)O)CC[C@]3(C)C(=CC[C@@H]4[C@@]5(C)C[C@@H](O)[C@@H](O)[C@@](C)(CO)[C@@H]5CC[C@]43C)[C@H]12 [Esculentic acid]	-0.238
C[C@@H]1CC[C@@]23CC[C@]4(C)[C@@](C=CC5[C@@]6(C)CC[C@H](O)C(C)(C)C6CC[C@]54C)(OC2=O)C3[C@H]1C (some centres undefined) [3-Hydroxy-11-ursen-28,13-olide]	-0.321
O=c1c2cccc(O)c2nc2n1CCc1c-2[nH]c2ccccc12 [1-Hydroxyrutaecarpine]	0.00461
Oc1ccc(C=Cc2cc(O)cc3c2C(c2cc(O)cc(O)c2)C(c2ccc(O)cc2)O3)cc1 (centres undefined) [Viniferin]	0.0171
CC1(O)CCC(C(C)(C)O)C(O)C1 (centres undefined) [p-Menthan-1,3,8-triol]	-0.142
C=C1C(=O)O[C@H]2C[C@@H](C)[C@@H]3CC[C@H](O)[C@@]3(C)C[C@H]12 [2-Desoxy-4-epi-pulchellin]	-0.366

SMILES	log
CC(C)C1=CC2=CCC3C(C)(C(=O)O)CCCC3(C)C2CC1O (centres undefined) [12-Hydroxyabietic acid]	-0.327
CC(C)=CCc1c(O[C@@H]2O[C@H](CO)[C@@H](O)[C@H](O)[C@H]2O)cc(O)c2c1O[C@H](c1ccc(O)cc1)CC2=O [Flavaprin]	0.16
CC(C)=CCc1c(O)cc(O)c2c1O[C@H](c1ccccc1)CC2=O [Glabranin]	0.186
COc1cc([C@H]2OC[C@H]3[C@@H]2CO[C@@H]3c2cc(OC)c(O)c(OC)c2)cc(OC)c1O (racemic) [DL-Syringaresinol]	-0.117
COC(=O)C1=CO[C@@H](C)[C@H]2CN3CCc4c([nH]c5ccccc45)[C@@H]3C[C@H]12 [Ajmalicine]	0.0956
C=C1CC[C@H]2[C@@](C)(COC(C)=O)CCC[C@]2(C)[C@H]1CC/C(C)=C/COC(C)=O [Agathadiol diacetate]	-0.119
COC1=CC(=O)C(C(=O)/C=C/c2ccccc2)=C1O [Lucidone]	-0.331
CC(=O)CCc1ccc(O)c(O)c1 [4-(3,4-Dihydroxyphenyl)-2-butanone]	0.00469
C=CC(C)(C)c1[nH]c2ccccc2c1/C=C1\NC(=O)[C@H](C)NC1=O [Neoechinulin A]	-0.222
CC(=O)O[C@@H]1C2=C(C)[C@@H](OC(C)=O)[C@H](OC(=O)c3ccccc3)[C@@](O)([C@@H](O)[C@@H]3[C@]4(OC(C)=O)CO[C@@H]4C[C@H](OC(C)=O)[C@@]3(C)[C@H]1OC(C)=O)C2(C)C [14beta-Benzoyloxy-2-deacetylbaccatin VI]	0.041
COc1c(OC(C)=O)cc2c(=O)oc3c(OC(C)=O)c(O[C@@H]4OC[C@@H](OC(C)=O)[C@H](OC(C)=O)[C@H]4OC(C)=O)cc4c(=O)oc1c2c34 [Ducheside A pentaacetate]	0.121
C=C1CC[C@H]2C(=C)CC[C@H]3C(=C)C(=O)O[C@@H]3[C@@H]12 [Dehydrocostus lactone]	-0.189
CC[C@]12C=CCN3CC[C@@]4(c5ccccc5N(C)[C@H]4[C@@](O)(C(=O)OC)[C@@H]1OC(C)=O)[C@@H]32 [Vindorosine]	0.00152
C[C@@H]([C@H]1[C@@H](O)C[C@@]2(C)[C@@H]3CC[C@H]4C(C)(C)C(=O)C=C[C@@]45C[C@@]35CC[C@]12C)N(C)C [Buxbodine B]	-0.163
C[C@H]1[C@H](C)CC[C@]2(C(=O)O[C@@H]3O[C@H](CO)[C@@H](O)[C@H](O)[C@H]3O)CC[C@]3(C(=O)O)C(=CC[C@@H]4[C@@]5(C)CC[C@H](O[C@@H]6O[C@H](C)[C@@H](O)[C@H](O)[C@H]6O)C(C)(C)[C@@H]5CC[C@]43C)[C@H]12	-0.0297
C=C1[C@H](OC(=O)C(C)C)[C@@H](O)[C@@H](OC(=O)c2cccnc2)C(C)(C)/C=C\[C@H](C)[C@H](OC(C)=O)[C@@]2(O)C[C@@](C)(OC(C)=O)[C@H](OC(=O)c3ccccc3)[C@@H]2[C@H]1OC(C)=O	-0.184
CC(=O)Oc1cc(OC(C)=O)cc(C2CC(=O)c3c(OC(C)=O)cc(OC(C)=O)cc3O2)c1 (centres undefined) [3',5,5',7-Tetraacetoxyflavanone]	-0.262
CC(C)[C@H]1CC[C@@H]2[C@]1(C)CC[C@]1(C)[C@H]3CC=C4[C@@H](CC[C@H](O)C4(C)C)[C@]3(C)CC[C@@]21C [Simiarenol]	-0.204
CC(=O)Oc1ccc([C@@H]2CC(=O)c3c(O)cc(OC(C)=O)cc3O2)cc1 [Naringenin-4',7-diacetate]	0.0391

Random excerpt: 2 compounds from above.
SMILES	log
C=C1[C@H](OC(=O)C(C)C)[C@@H](O)[C@@H](OC(=O)c2cccnc2)C(C)(C)/C=C\[C@H](C)[C@H](OC(C)=O)[C@@]2(O)C[C@@](C)(OC(C)=O)[C@H](OC(=O)c3ccccc3)[C@@H]2[C@H]1OC(C)=O	-0.184
C[C@@H]([C@H]1[C@@H](O)C[C@@]2(C)[C@@H]3CC[C@H]4C(C)(C)C(=O)C=C[C@@]45C[C@@]35CC[C@]12C)N(C)C [Buxbodine B]	-0.163
